This series in a line: pH-gradient driven loading of agents in HL 60 vesicles.

The structures appear in SMILES notation.

On to `O=S1(=O)OC(c2cc(Br)c(O)c(Br)c2)(c2cc(Br)c(O)c(Br)c2)c2ccccc21` [bromophenol blue], for which the “increase of loading efficiency in HL 60 vesicles by pH gradient” value (pH 9.5 inside vesicles, agent solution at pH 4, versus control without gradient) is listed as 2-3 fold.

On to `Cn1c(=O)c2c(ncn2C)n(C)c1=O` [caffeine], for which the “drug loading in HL 60 vesicles (basic drug)” value (pH 3.5 inside vesicles, caffeine solution at pH 9 or sonicated in HBSS pH 7.5, versus HBSS pH 7.5) is listed as “dramatically increased”.

The values above are taken from patent US20180177725A1, “CELL MEMBRANE-FORMED NANOSCALE VESICLES AND METHODS OF USING THEREOF” (WASHINGTON STATE UNIVERSITY, priority 2015, published 2018).
